Source: PubChem BioAssay AID2685 (National Center for Advancing Translational Sciences (NCATS), 2010)
Screen size: about 320,000 compounds; about 2,100 (0.66%) were called active. The shares of active, inactive and inconclusive entries below differ from those in the screen. Calls follow the shape of the dose curve; as a rule, active = well fitted inhibition curve with a large enough effect in the signal ratio, with a control signal flat (not every such curve was filed as active); inconclusive = small, poorly fitted or top-dose-only effect, or effect the other way, or a change in a side signal; inactive = flat fitted curve, though single readings scatter; the % refers to the signal ratio. A potency beside an inconclusive call is a rough fit, not a confirmed value.

Assay: qHTS Assay for Lipid Storage Modulators in Drosophila S3 Cells
Conditions: BODIPY lipid droplet fluorescence, 18-24 h, cells fed with added oleic acid; lipid storage change, negative = inhibition: at 46.1 µM (top of the series) unless noted
Summary of the method: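 Laser-scanning cytometry quantifies lipid droplet accumulation (500–530 nm total intensity; droplet/cell object ratio) in oleic acid-fed (400 uM added) Drosophila S3 cells treated with a concentration series. 20 uM Triacsin C defined 100% inhibition.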
% is scaled to controls: 0 for no effect and ±100 for the full control effect; potency is read from the fitted curve at half-maximal effect.

Row | SMILES | lipid storage change, negative = inhibition | Potency
1 | Nc1nonc1C(=O)NCCNCc1c(OCc2ccccc2F)ccc2ccccc12 | inconclusive: 46% | 
2 | Cn1ccs/c1=N\S(=O)(=O)c1ccc(Br)cc1 | inactive: -1.49% | 
3 | COc1ccc(S(=O)(=O)N2CCCOC2CNC(=O)C(=O)NCc2cccnc2)cc1 (stereo not drawn) |  | inconclusive: 8.2 µM [activator, partial curve]
4 | COc1ccc(N2CC(C)Cn3c2nc2c3c(=O)n(Cc3ccc(F)cc3)c(=O)n2C)c(OC)c1 (stereo not drawn) | inconclusive: 25.8% | 
5 | CCCS(=O)(=O)c1c(S(=O)(=O)CCC)c2ccc(C(N)=O)cn2c1C(=O)c1ccccc1 | inconclusive: -0.735% | 
6 | N=c1sccn1CC(=O)Nc1ccccc1Oc1ccccc1 | inconclusive: 9.13% | 
7 | COc1ccc(C2CC(c3ccccc3)=NN2C(=O)c2ccc(F)cc2)cc1 (stereo not drawn) | inconclusive: 71% | 
8 | O=C(NCc1ccccn1)c1cccc(NS(=O)(=O)c2ccc(Br)cc2)c1 | inconclusive: 32.4% | 
9 | CCC/C(O)=C1\C(=O)CC(c2ccccc2)CC1=NCCc1c(C)[nH]c2ccc(C)cc12 (stereo not drawn) | inconclusive: 35.5% | 
10 | Cc1ccc(S(=O)(=O)N2CC(C)C(=O)CC2C)cc1 (stereo not drawn) |  | inconclusive: 0.58 µM [falling, single point]
11 | CN(C)c1ccc(/C=C/c2cc[n+](C)cc2)cc1 |  | inconclusive: 3.26 µM [cytotoxic, full curve]
12 | C#Cc1ccc([C@@H]2C=C(C(=O)OCC=C)O[C@H](OCCCCO)C2)cc1 | inconclusive: 17.2% | 
13 | COc1ccc(NC(=O)/C(=C\c2cc(OC)c(OC)cc2[N+](=O)[O-])NC(=O)c2ccccc2)cc1 | inconclusive: 6.62% | 
14 | NC(=O)C1Cc2ccccc2CN1C(=O)c1nn(Cc2ccccc2)c(=O)c2ccccc12 (stereo not drawn) | inconclusive: 25.9% | 
15 | Cc1cc(C)nc(NS(=O)(=O)c2ccc(NC(=O)CCN3C(=O)c4ccccc4C3=O)cc2)n1 |  | inconclusive: 0.58 µM [activator, single point]
16 | CNC(=O)Cc1csc2ccc(Cl)cc12 |  | inconclusive: 1.64 µM [falling, partial curve]
17 | CC(C)C(=O)NC(NC1CCS(=O)(=O)C1)C(Cl)(Cl)Cl (stereo not drawn) | inconclusive: -14.1% | 
18 | CC(C)NC(=S)N1CCn2c(nc3ccccc32)C1 | inconclusive: 43.4% | 
19 | O=C(CN1C(=O)NC2(CCCC2)C1=O)OCc1ccccc1 |  | inconclusive: 25.9 µM [activator, single point]
20 | Cc1cc(C)cc(NS(=O)(=O)c2ccc(NC(=S)NC(=O)c3cccs3)cc2)c1 |  | inconclusive: 20.6 µM [falling, single point]
21 | CCCCNC(=O)N1CCN(S(C)(=O)=O)CC1 | inconclusive: -8.41% [cytotoxic] | 
22 | C=CCC1(NC(C)c2ccccc2)CCCCC1 (stereo not drawn) |  | inconclusive: 0.651 µM [falling, partial curve, poor fit]
23 | CCOC(=O)/C(C#N)=C/Nc1cc(C(C)(C)C)sc1C(C)=O | inconclusive: 9.89% | 
24 | COc1ccccc1CNc1ncc(-c2ccccc2)n1C | inconclusive: 3.09% | 

Row | SMILES | lipid storage change, negative = inhibition | Potency
25 | CN(CC(=O)O)S(=O)(=O)/C=C/c1ccccc1 | inconclusive: -0.713% [at 9.22 µM] | 
26 | C/C(=N\NC(=O)CNC(=O)C(c1ccccc1)c1ccccc1)c1ccc(C(C)(C)C)cc1 |  | inconclusive: 18.4 µM [cytotoxic, single point]
27 | CCOCCCNc1c2c(nc3cc(-c4ccc(F)cc4)nn13)CCC2 | inactive: 1.43% | 
28 | CCOc1ccccc1NC(=O)NNC(=O)CCc1ccc(OC)cc1 |  | inconclusive: 32.6 µM [activator, single point]
29 | Cc1ccc2cc3c(NC(=O)c4cccnc4)nn(C)c3nc2c1 | inconclusive: 39.9% | 
30 | O=c1cc(-c2ccccc2)nc(N2CCN(Cc3ccc4c(c3)OCO4)CC2)[nH]1 |  | inconclusive: 20.6 µM [activator, single point]
31 | Cc1cc(-c2cc(-c3ccccc3)on2)nc(NCC2CC2)n1 | inconclusive: 20.4% | 
32 | Cc1ccc(Oc2cnn(-c3ccccc3)c(=O)c2Br)cc1 | inconclusive: 146% | 
33 | CCC1Oc2ccc(C)cc2N(CC(=O)NCCCN2CCCCC2C)C1=O (stereo not drawn) |  | inconclusive: 0.58 µM [activator, single point]
34 | CN(CCCCCCCCC(=O)/C=N/O)Cc1ccccc1 |  | inconclusive: 0.82 µM [falling, full curve]
35 | CCn1c(=O)c(=O)[nH]c2cc(C(=O)NC3CCCc4ccccc43)ccc21 (stereo not drawn) | inconclusive: 57.1% | 
36 | COc1ccc(N2CCN(C(=O)CSc3ccc(C)cc3)CC2)cc1 | inactive: -0.457% | 
37 | O=C(/C=C/c1ccoc1)c1ccccc1O | inconclusive: -37.2% | 
38 | CCCCCCSc1cc(-c2nc3cc(C)ccn3c2NCCCC)ccc1OC | inconclusive: -100% | 
39 | N#Cc1nccnc1S(=O)(=O)c1cccs1 |  | inconclusive: 3.66 µM [cytotoxic, full curve]
40 | CCS(=O)(=O)Nc1ccc(-c2nnc(SCC(=O)OC)o2)cc1 |  | inconclusive: 16.4 µM [falling, partial curve, poor fit]
41 | O=C(O)c1ccc(Nc2ncnc3c2cnn3Cc2ccccc2)cc1 |  | inconclusive: 0.231 µM [falling, full curve, poor fit]
42 | N#Cc1cccc(NC(=O)COC(=O)c2cccc(N3C(=O)c4ccccc4C3=O)c2)c1 | inconclusive: 28% | 
43 | O=C(OCC(=O)N1CCN(C(=O)c2ccco2)CC1)c1cc(-c2ccc(F)cc2)nc2ccccc12 |  | inconclusive: 1.64 µM [activator, single point]
44 | Cc1ccc(-c2nc(CS(=O)CC(=O)NC3CCCCC3)c(C)o2)cc1 (stereo not drawn) |  | inconclusive: 32.6 µM [falling, single point]
45 | C=CCNC(=S)N(Cc1ccccc1)Cc1ccc(F)cc1 | inconclusive: 16.7% | 
46 | CC1CC(=O)c2cnc(NCc3ccco3)nc2C1 (stereo not drawn) |  | inconclusive: 16.4 µM [activator, partial curve]
47 | COc1ccc2nc(NCc3cccnc3)sc2c1 | inconclusive: 40.1% | 
48 | O=C(O)/C=C/C(=O)Nc1ccc(OC(F)F)cc1 | inconclusive: -8.63% | 

Given in CSV form: 3 of the compounds above
Row,SMILES,"lipid storage change, negative = inhibition",Potency
29,Cc1ccc2cc3c(NC(=O)c4cccnc4)nn(C)c3nc2c1,inconclusive: 39.9%,
30,O=c1cc(-c2ccccc2)nc(N2CCN(Cc3ccc4c(c3)OCO4)CC2)[nH]1,,"inconclusive: 20.6 µM [activator, single point]"
31,Cc1cc(-c2cc(-c3ccccc3)on2)nc(NCC2CC2)n1,inconclusive: 20.4%,
